The values below come from US20200362174A1, “COMPOUNDS AND METHODS FOR OPTICAL SENSING OF ELECTRICAL ACTIVITY IN BIOLOGICAL SYSTEMS” (UNIVERSITY OF CONNECTICUT, priority 2018, published 2020).

The nature of the series: voltage sensitivity testing on the voltage clamped hemispherical lipid bilayer (HLB) apparatus.

Each structure is given as a SMILES string. Entries after “also recorded” stand apart in the source; their conditions may differ. Counter-ions that a name gives are not always drawn.

For the compound `CCCCN(CCCC)c1ccc2cc(C=Cc3cc[n+](CCCS(=O)(=O)[O-])cc3)ccc2c1` [Di-4-ANEPPS, 4-(2-(6-(dibutylamino)-2-naphthalenyl)ethenyl)-1-(3-sulfopropyl)pyridinium hydroxide inner salt, reference compound], the “wavelength dependence of the voltage-dependent fluorescence change” value is given as “biphasic”. As for `CN(CCCCCCCCCCCCNC(=O)CCCCCCCCCCCNC(=O)COCCOCCNC(=O)CCc1c([N+](=O)[O-])cc([N+](=O)[O-])c([N-]c2c([N+](=O)[O-])cc([N+](=O)[O-])cc2[N+](=O)[O-])c1[N+](=O)[O-])c1ccc2cc(/C=C/c3cc[n+](CCOCCOCCO)cc3)ccc2c1` [PY6242], the “comment in words: fluorescence signal, membrane binding/staining, behaviour” value is on record as “Not binding; also recorded: Low fluorescence”. Same read-out and setting: with `CN(CCCCCCCCCCCCNC(=O)CCCCCCCCCCCNC(=O)CCc1c([N+](=O)[O-])cc([N+](=O)[O-])c(Nc2c([N+](=O)[O-])cc([N+](=O)[O-])cc2[N+](=O)[O-])c1[N+](=O)[O-])c1ccc2cc(/C=C/c3cc[n+](CCCCS(=O)(=O)[O-])cc3)ccc2c1` [PY6256] the entry was “FAST, and Linear; also recorded: Low Fluorescence”. The same measure, in the same setting: with `CC[N+](CC)(CC)CCC[n+]1ccc(/C=C/c2ccc3cc(N(C)CCCCCCCCCCCCNC(=O)CCc4c([N+](=O)[O-])cc([N+](=O)[O-])c(Nc5c([N+](=O)[O-])cc([N+](=O)[O-])cc5[N+](=O)[O-])c4[N+](=O)[O-])ccc3c2)cc1` [TBFQ 14] the entry was “nonfluorescent; also recorded: TBFQ 14 (PY6017); No fluorescence signal”. `CC[N+](CC)(CC)CCC[n+]1ccc(/C=C/c2ccc3cc(N(C)CCCCCCCCCCCCNC(=O)CCCCCCCCCCCNC(=O)CCc4c([N+](=O)[O-])cc([N+](=O)[O-])c(Nc5c([N+](=O)[O-])cc([N+](=O)[O-])cc5[N+](=O)[O-])c4[N+](=O)[O-])ccc3c2)cc1` [TBFQ 15]: the “comment in words: fluorescence signal, membrane binding/staining, behaviour” value is on record as “Electrochromic behavior” and the “wavelength dependence of the voltage-dependent fluorescence change” value is recorded as “biphasic”.
